Data taken from ChEMBL document CHEMBL3988442, “University of Dundee, Small-Polar-MMV Screening Library” (2021).

Results are given as percent effect.
How 0% and 100% were set is not recorded. Most values in the screen are low, and negative values occur.
Compounds were drawn at random from those tested, without regard to their results.
Two or more numbers in one place are separate tests of the same structure; such repeats can differ widely.

A: 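Phenotypic screen: M. tuberculosis growth, glucose 7H9 medium, 3 days; the read-out is not stated. Tested at 50 µM. Higher reads as more growth inhibition (inferred: compounds with an IC50 in retests scored well above the rest). About 69,000 compounds were tested under these conditions; 1.1% (about 760) showed 50% or more at least once.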
B: 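Phenotypic screen: M. tuberculosis growth, cholesterol and DPPC medium, 4 days; the read-out is not stated. Compounds at 50 µM. Higher reads as more growth inhibition (inferred: compounds with an IC50 in retests scored well above the rest). Size under these conditions: about 69,000 compounds, about 370 of them at 50% or above in at least one test.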

| SMILES | A | B |
|---|---|---|
| `COc1c(Br)cccc1CCNC(=O)c1ccon1` | 23.21 and 45.82 | 23.14 |
| `CCN(CC)c1ccc(CNC(=O)c2cnc(C)cn2)cn1` | 19.36 | 22.15 |
| `COc1ccccc1NC(=O)C1(c2ccccc2)CCOCC1` | 21.78 | 13.63 |
| `CN(Cc1ccc2c(c1)OCCO2)Cn1nc(C(C)(C)C)ccc1=O` | -23.52 | -17.35 |
| `CC[C@@H](CO)Nc1nccc(-c2cnc3sc(C)cn3c2=O)n1` | -7.834 | -23.05 |
| `[H][C@]12C[C@H](C(=O)NCC3CC3)N(C(C)=O)[C@@]1([H])CN(Cc1ccco1)C2` | -31.95 | -25 |
| `Cc1ccccc1C(C)NC(=O)CN1CCN(Cc2ccc(Cl)s2)CC1` (stereo not given) | 26.3 | -0.9128 |
| `Cc1nc(CNC(=O)NC2CCN(c3cccc(Cl)c3)C2)no1` (stereo not given) | 6.419 | -19.34 |
| `O=C(Cc1ccccc1F)NCC1CCN(CCc2ccccc2)C1` (stereo not given) | -15.97 | -12.49 |
| `CCn1nc(C)c2ccn(CC(=O)NC3CCCC3)c(=O)c21` | -5.055 | -5.301 |
| `Cc1c(NC(=O)c2ncn[nH]2)cccc1C(=O)NC(C)(C)C` | 3.008 | 0.1906 |
| `CN(Cc1ccc(Cl)s1)C(=O)CN(C)C1CCc2ccccc21` (stereo not given) | 24.94 | 4.627 |
| `CCNC(=O)CCC(=O)NC(Cc1ccccc1)c1sccc1C` (stereo not given) | -8.377 | -15.78 |
| `Cc1ncc2c(n1)CN(Cc1cccc3c1OCCO3)CC2` | -2.649 | -7.439 |
| `O=C(C1CC(=O)N(c2ccccc2Br)C1)N1CCC2(CC1)OCCO2` (stereo not given) | -5.22 | -19.98 |
| `CN(CC1COc2ccccc2O1)C(=O)NCCCn1ccnc1` (stereo not given) | -55.8 | -4.048 |
| `O=C(c1cn(-c2cc(N3CCSCC3)ncn2)cn1)N1CCSCC1` | 0.8963 and 3.076 | 7.533 |
| `CCn1cc(NC(=O)C2CCN(Cc3nc(C)c(C)s3)CC2)cn1` | 30.85 | -2.412 |
| `O=C(O)C(F)(F)F.[H][C@@]12OCCN(Cc3nccs3)[C@@]1([H])CC[C@H]2OCC1CCCC1` | 6.799 and 3.188 | -4.391 |
| `CN(Cc1ccncc1)C1CC2(CCN(C(=O)c3ccnnc3)CC2)C1` | -3.805 | -13.03 |
| `CCCc1cncnc1N1CCC2(CCC(=O)N(C3CCCC3)C2)CC1` | 16.24 | -12.67 |
| `Cc1cncc(C2CCCN(C(=O)c3ccc(C)[nH]c3=O)C2)n1` (stereo not given) | 18.09 | -10.26 |
| `OC1(CN2CCCCC2)CCN(c2cc(C(F)(F)F)ccn2)C1` (stereo not given) | -1.393 and -1.044 | -11.59 |
| `O=C(c1cnc2c(c1)CCC2)N1CCCC(CO)(CC2CC2)C1` (stereo not given) | -14.3 and 1.2 | 2.169 |
| `Cc1ccc(OC2(C(=O)O)CCN(C(=O)c3ccoc3C)CC2)cn1` | 11.79 | 12.63 |
| `Cc1cc(C(F)(F)F)cc(N2C[C@@H](CN3CCOCC3)[C@@H](CO)C2)n1` | 4.632 | 5.361 |
| `Cc1ccc(CN2CCc3[nH]nc(C(=O)N(C)C)c3C2)s1.O=C(O)C(F)(F)F.O=C(O)C(F)(F)F` | -16.01 | 11.52 |
| `Cc1cc2nc(SCC(=O)N3CCCC3)n(Cc3ccco3)c(O)c-2n1` | -17.28 | -12.69 |
| `O[C@@H]1C[C@@H](c2nc(-c3ccccc3)no2)N(Cc2ccncc2)C1` | 7.514 and -1.33 | 13.58 |
| `CCCc1nnsc1C(=O)N1CCCC1(C)C(=O)N1CCOCC1` (stereo not given) | -11.73 | -3.908 |
| `CCc1nc(C2CCCN(C(=O)C3=NN(C(C)C)C(=O)CC3)C2)no1` (stereo not given) | -9.199 and -1.96 | -6.311 |
| `CCN1CCc2[nH]cnc2C12CCN(Cc1ccc3nsnc3c1)CC2` | 6.678 and 41.62 | 29.01 |
| `CNc1nc(CNC(=O)Nc2cccc(-n3ccc(C)n3)c2)cs1` | 24.84 | 22.61 |
| `O=C(NCCN1CCCCC1)c1cccc(Cl)c1Cl` | -5.216 | -0.4807 |
| `c1ccc2c(OCCN3CCn4c(nnc4C4CC4)C3)cccc2c1` | 7.495 | 7.854 |
| `CC(C)c1noc(CN2CCN(C(=O)c3ccc(F)cc3)CC2)n1` | 113.1 and -3.961 | -11.14 |
| `Cc1ccc(C(CNC(=O)c2c(C)noc2C(C)C)N(C)C)cc1` (stereo not given) | 2.59 and -0.2143 | -23.58 |
| `CC(C)NC(=O)C1CN(C(=O)Cc2cccc(F)c2)CC12CCOCC2` (stereo not given) | -0.361 | -5.532 |
| `O=C(O)C(F)(F)F.[H][C@@]12C[C@H](C(=O)NCc3ccco3)CN(C(=O)c3ccncc3)[C@]1([H])CCO2` | -9.356 | 4.268 |
| `Cc1cc(N2CCC(CC(N)=O)CC2)nc(-c2ccncc2)n1` | -0.874 | -1.257 |
| `CC(C)C(=O)N1CCC(c2nc3ccccn3c2NC(C)(C)C)CC1` | -5.579 | 4.41 and -2.957 |
| `CCc1cc(C(=O)N2CCc3nc4c(C)csc4c(=O)n3CC2)on1` | 33.81 | -16.84 |
| `COC(=O)N1CCC(Nc2ccc(Cl)c(C#N)n2)CC1` | 1.595 | 38.61 |
| `Cc1cc(C)nc(C2CCN(C(=O)c3c(C)noc3C)C2)n1` (stereo not given) | 9.925 | 3.682 |
| `O=C(NCc1cc(Br)cs1)Nc1cn[nH]c1` | 22.21 | 3.006 |
| `N#Cc1cccnc1NCc1ccc(S(=O)(=O)NC2CC2)cc1` | 11.67 | -0.8139 |
| `CNC(=O)Cn1nc(C(C)C)c2cnn(C(C)(C)C)c2c1=O` | -3.268 | -50.79 |
| `COc1cccc2sc(N3CCN(C(=O)c4cc(C)on4)CC3)nc12` | 14.66 | -16.67 |
| `COc1ccc(CN2CCCC3(CC2)CNC(=O)O3)cc1OC` (stereo not given) | 4.98 and -5.949 | -3.725 |
| `COc1ccc(CNC2CCN(c3ccccc3)C2)c(OC)c1OC` (stereo not given) | 18.14 | 9.307 |
| `COc1cccc(OC)c1CC(=O)NC(C#N)c1ccsc1` (stereo not given) | -6.893 | 7.986 |
| `Cc1ncc2c(n1)CCN(Cc1nc3ccccc3o1)C2` | 20.38 | -2.575 |
| `O=C(Nc1ccccc1N1CCOC1=O)N1CCSCC1` | -43.23 | -24.42 |
| `CCCc1cc(C(=O)N[C@@H]2CCC[C@@H](N3CCCC3)[C@@H]2O)no1` | 11.61 | 7.039 |
| `COc1cccc(Nc2nc(C3CCNCC3)c3ccccn23)c1.Cl` | 14.24 | 19.92 and 15.49 |
| `COCCN(Cc1ccc(F)cc1Cl)C(=O)c1ccncc1` | 5.07 and -8.955 | 10.89 |
| `Cc1noc(C)c1CCC(=O)NCCc1cccs1` | 15.45 and 4.258 | 13.25 |
| `CCC(=O)Nc1nnc(CCCOc2ccccc2)s1` | 7.761 | -16.02 |
| `CN(Cc1cccc2cccnc12)C1CCS(=O)(=O)C1.O=C(O)CC(O)(CC(=O)O)C(=O)O` (stereo not given) | -43.02 | -7.868 |
| `CC(NC(=O)CCC(=O)c1cccs1)c1nnc2n1CCC2` (stereo not given) | 0.7075 and -17.34 | -9.265 |
| `COc1ncccc1CNCc1c(C)nn(C)c1N1CCOCC1` | 6.576 | 11.7 |
| `COc1ccccc1Oc1ncccc1CNC(=O)C(O)C(F)(F)F` (stereo not given) | -11.92 | -28 |
| `CC(C)(C)Nc1c(C2CCN(C(=O)C(C)(C)C)CC2)nc2ccccn12` | 4.345 | -3.517 and -0.08785 |
| `O=C(CCN1CCOC1=O)N(Cc1ccncc1)CC1CCCO1` (stereo not given) | -9.659 | -7.161 |
| `Cc1ccc2c(C)c(C(=O)NCc3csc(N)n3)oc2c1` | 17.23 | 8.929 |
| `CS(=O)(=O)c1cc(NC(=O)COc2ccccc2F)cc(C(=O)O)c1` | 5.755 | -18.89 |
| `CC(C)c1noc(CS(=O)(=O)Cc2nc(C(C)C)no2)n1` | -42.86 | -29.77 |
| `O=C(CNc1ccccc1S(=O)(=O)C(F)F)NCc1ccco1` | 25.98 | 30.92 |
| `OC(COCc1cccs1)Cn1cc(Cl)cn1` (stereo not given) | -5.443 and 5.513 | 6.47 |
| `CC(CC(=O)NCCNS(C)(=O)=O)C1CCCCC1` (stereo not given) | -11.32 | -15.25 |
| `O=C1CC(c2ccsc2)c2snc(C(=O)O)c2N1` (stereo not given) | 4.238 and -1.227 | 10.65 |
| `Cn1cc(C(=O)CC2CCCN2C(=O)c2ccn3ccnc3c2)cn1` (stereo not given) | -0.9223 and -1.424 | -11.27 |
| `COc1ccccc1CC(C)CC(=O)N(C)Cc1cc(C)on1` (stereo not given) | -8.784 | 9.066 |
| `O=C(NC1CC(=O)N(C2Cc3ccccc3C2)C1)c1ccsc1` (stereo not given) | 24.24 | 29.94 and 16.46 |
| `CC(C)(N)c1cn(C2CCN(C(=O)CCC3CCCCC3)CC2)nn1` | -3.068 and -21.02 | 7.372 |
| `FC(F)(F)c1cccc(CN2CCOC[C@H](Oc3cccnc3)C2)c1` | 8.173 and -1.962 | -20.78 |

10 of the entries, repeated:

- CC(C)NC(=O)C1CN(C(=O)Cc2cccc(F)c2)CC12CCOCC2 (stereo not given) | A: -0.361%; B: -5.532%
- O=C(NCCN1CCCCC1)c1cccc(Cl)c1Cl | A: -5.216%; B: -0.4807%
- CCCc1nnsc1C(=O)N1CCCC1(C)C(=O)N1CCOCC1 (stereo not given) | A: -11.73%; B: -3.908%
- CC(C)c1noc(CS(=O)(=O)Cc2nc(C(C)C)no2)n1 | A: -42.86%; B: -29.77%
- COc1cccc(OC)c1CC(=O)NC(C#N)c1ccsc1 (stereo not given) | A: -6.893%; B: 7.986%
- [H][C@]12C[C@H](C(=O)NCC3CC3)N(C(C)=O)[C@@]1([H])CN(Cc1ccco1)C2 | A: -31.95%; B: -25%
- O=C(C1CC(=O)N(c2ccccc2Br)C1)N1CCC2(CC1)OCCO2 (stereo not given) | A: -5.22%; B: -19.98%
- CCN(CC)c1ccc(CNC(=O)c2cnc(C)cn2)cn1 | A: 19.36%; B: 22.15%
- CCCc1cc(C(=O)N[C@@H]2CCC[C@@H](N3CCCC3)[C@@H]2O)no1 | A: 11.61%; B: 7.039%
- CNC(=O)Cn1nc(C(C)C)c2cnn(C(C)(C)C)c2c1=O | A: -3.268%; B: -50.79%